Laboratory results from paper doi:10.1101/266833.
No constants are given. Whether binding was seen depends on the method and setting. Binding seen in cells or lysates may run through a third protein. A yes stands for co-enrichment or nearness to the bait. Other partners may have been found. A no says only that the protein was not detected with the bait.

Sequences of proteins named here, by UniProt entry; tags and fusion partners are left off.
UniProt P33322: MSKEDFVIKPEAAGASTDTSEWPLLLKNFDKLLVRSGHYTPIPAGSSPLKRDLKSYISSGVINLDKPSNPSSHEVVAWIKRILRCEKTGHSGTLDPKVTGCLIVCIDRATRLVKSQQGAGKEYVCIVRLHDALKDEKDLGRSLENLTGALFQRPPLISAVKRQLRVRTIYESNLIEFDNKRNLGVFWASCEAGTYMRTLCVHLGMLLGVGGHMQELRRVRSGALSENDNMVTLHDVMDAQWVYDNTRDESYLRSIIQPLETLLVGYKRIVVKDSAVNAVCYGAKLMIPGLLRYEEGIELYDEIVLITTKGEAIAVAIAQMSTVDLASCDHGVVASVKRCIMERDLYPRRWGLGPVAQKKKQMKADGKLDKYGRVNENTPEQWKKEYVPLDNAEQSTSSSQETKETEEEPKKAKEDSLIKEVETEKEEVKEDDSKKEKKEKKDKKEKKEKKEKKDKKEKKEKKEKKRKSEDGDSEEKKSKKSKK
UniProt P28007: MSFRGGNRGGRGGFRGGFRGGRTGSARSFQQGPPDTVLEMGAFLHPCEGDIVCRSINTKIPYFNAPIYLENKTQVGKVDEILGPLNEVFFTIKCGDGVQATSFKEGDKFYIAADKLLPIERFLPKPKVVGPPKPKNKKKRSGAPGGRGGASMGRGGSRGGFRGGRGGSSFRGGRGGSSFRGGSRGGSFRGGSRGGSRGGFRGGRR
UniProt P00359: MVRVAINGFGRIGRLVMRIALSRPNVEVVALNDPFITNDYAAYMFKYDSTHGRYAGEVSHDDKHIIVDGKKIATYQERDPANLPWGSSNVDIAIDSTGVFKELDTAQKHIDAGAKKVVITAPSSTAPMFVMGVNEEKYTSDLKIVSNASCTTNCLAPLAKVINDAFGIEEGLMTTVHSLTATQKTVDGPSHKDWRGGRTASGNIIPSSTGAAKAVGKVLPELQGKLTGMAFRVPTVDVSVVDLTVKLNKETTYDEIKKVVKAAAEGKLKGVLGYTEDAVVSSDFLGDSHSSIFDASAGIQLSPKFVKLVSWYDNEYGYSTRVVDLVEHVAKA
UniProt P05030: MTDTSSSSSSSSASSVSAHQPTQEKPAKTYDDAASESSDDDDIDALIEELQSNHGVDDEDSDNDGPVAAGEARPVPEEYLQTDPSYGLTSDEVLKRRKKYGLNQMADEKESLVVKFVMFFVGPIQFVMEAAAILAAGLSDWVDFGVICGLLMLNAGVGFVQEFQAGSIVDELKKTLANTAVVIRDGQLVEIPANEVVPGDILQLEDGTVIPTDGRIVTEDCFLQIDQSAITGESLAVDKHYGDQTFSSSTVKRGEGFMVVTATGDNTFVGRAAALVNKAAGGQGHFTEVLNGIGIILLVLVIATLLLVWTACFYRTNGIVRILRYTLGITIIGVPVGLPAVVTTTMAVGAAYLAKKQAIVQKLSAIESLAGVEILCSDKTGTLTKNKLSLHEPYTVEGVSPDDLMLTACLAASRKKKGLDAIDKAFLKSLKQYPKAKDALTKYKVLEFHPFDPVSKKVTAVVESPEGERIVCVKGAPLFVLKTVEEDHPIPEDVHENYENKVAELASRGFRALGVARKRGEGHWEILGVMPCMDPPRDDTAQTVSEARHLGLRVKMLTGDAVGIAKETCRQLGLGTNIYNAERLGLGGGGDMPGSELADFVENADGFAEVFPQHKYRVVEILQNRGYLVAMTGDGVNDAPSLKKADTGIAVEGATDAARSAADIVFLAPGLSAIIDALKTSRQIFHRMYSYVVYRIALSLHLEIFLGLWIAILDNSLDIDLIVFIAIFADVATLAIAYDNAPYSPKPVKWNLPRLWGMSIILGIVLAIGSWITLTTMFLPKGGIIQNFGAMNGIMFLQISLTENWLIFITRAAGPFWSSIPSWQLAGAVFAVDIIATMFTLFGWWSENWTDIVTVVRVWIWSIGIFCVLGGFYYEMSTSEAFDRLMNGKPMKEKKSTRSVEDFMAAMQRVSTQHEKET
UniProt P12385: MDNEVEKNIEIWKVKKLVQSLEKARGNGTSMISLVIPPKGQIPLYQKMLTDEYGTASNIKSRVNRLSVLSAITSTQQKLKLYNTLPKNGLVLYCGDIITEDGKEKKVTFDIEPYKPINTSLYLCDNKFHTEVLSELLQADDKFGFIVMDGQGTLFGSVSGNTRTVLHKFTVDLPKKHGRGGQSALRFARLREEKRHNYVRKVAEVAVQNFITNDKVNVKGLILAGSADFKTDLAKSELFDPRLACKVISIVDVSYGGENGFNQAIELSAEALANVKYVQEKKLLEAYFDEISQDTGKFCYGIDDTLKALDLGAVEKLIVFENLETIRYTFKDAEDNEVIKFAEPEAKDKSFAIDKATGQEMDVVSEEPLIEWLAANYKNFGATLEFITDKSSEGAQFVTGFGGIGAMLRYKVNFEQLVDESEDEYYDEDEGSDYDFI
UniProt P05453: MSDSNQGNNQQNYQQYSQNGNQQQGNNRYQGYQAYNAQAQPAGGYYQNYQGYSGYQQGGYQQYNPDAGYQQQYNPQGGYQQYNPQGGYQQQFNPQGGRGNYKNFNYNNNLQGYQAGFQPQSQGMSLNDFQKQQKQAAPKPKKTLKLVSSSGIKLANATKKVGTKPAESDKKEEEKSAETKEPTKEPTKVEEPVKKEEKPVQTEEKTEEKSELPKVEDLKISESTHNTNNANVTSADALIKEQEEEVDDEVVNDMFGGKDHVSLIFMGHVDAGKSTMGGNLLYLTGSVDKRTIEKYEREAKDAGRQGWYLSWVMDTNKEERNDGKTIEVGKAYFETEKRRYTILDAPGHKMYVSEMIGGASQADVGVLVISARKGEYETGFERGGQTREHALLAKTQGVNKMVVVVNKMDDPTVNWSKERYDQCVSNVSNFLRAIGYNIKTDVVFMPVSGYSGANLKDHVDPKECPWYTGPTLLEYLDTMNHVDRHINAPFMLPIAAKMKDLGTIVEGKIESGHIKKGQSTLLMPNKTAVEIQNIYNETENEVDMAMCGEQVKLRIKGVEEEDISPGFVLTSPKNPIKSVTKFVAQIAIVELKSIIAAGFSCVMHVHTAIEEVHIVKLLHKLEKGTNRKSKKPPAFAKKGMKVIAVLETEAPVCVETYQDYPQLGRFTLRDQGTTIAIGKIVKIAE

What was measured:
Assay in all cases: affinity purification with mass spectrometry
[1] = target: T1, Upf1-TAP (S. cerevisiae) (UniProt P30771)
T1 sequence: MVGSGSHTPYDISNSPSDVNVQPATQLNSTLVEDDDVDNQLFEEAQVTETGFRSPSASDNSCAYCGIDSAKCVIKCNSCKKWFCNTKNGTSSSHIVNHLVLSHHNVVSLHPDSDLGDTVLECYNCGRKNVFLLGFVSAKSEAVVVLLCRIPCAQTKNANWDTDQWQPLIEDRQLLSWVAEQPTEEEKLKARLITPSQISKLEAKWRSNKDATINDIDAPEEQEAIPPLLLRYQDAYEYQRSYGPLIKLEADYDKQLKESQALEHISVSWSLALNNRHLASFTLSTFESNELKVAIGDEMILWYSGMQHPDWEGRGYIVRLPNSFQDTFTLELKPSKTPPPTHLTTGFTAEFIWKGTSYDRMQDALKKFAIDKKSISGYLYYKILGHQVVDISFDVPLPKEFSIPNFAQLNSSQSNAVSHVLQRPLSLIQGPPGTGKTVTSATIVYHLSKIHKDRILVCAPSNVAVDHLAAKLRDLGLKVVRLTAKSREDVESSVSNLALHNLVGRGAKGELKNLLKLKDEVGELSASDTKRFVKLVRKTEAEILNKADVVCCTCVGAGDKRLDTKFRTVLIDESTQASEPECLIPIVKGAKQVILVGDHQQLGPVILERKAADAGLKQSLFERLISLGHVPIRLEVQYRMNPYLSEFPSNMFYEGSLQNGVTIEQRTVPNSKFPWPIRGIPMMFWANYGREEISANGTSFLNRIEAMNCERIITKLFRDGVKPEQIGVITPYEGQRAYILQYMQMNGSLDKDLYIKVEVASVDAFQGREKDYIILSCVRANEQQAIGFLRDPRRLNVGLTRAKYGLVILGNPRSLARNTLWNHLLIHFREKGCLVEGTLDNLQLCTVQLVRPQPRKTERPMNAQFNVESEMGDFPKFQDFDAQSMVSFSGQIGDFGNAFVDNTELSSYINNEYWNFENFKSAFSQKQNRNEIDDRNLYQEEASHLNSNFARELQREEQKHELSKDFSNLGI

[2] = target: T2, Upf3-TAP (S. cerevisiae) (UniProt P48412)
T2 sequence: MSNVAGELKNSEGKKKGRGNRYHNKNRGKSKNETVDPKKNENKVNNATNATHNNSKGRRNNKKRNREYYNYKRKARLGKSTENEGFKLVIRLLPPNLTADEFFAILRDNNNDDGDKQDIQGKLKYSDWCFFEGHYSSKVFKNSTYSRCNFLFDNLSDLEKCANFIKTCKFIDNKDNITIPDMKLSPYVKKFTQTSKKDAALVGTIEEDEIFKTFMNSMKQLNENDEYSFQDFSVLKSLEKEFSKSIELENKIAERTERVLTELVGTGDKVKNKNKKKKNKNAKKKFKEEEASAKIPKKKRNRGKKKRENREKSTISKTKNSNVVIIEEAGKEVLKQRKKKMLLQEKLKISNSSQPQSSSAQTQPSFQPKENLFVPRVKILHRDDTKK

[3] = target: T3, Upf2-TAP (S. cerevisiae) (UniProt P38798)
T3 sequence: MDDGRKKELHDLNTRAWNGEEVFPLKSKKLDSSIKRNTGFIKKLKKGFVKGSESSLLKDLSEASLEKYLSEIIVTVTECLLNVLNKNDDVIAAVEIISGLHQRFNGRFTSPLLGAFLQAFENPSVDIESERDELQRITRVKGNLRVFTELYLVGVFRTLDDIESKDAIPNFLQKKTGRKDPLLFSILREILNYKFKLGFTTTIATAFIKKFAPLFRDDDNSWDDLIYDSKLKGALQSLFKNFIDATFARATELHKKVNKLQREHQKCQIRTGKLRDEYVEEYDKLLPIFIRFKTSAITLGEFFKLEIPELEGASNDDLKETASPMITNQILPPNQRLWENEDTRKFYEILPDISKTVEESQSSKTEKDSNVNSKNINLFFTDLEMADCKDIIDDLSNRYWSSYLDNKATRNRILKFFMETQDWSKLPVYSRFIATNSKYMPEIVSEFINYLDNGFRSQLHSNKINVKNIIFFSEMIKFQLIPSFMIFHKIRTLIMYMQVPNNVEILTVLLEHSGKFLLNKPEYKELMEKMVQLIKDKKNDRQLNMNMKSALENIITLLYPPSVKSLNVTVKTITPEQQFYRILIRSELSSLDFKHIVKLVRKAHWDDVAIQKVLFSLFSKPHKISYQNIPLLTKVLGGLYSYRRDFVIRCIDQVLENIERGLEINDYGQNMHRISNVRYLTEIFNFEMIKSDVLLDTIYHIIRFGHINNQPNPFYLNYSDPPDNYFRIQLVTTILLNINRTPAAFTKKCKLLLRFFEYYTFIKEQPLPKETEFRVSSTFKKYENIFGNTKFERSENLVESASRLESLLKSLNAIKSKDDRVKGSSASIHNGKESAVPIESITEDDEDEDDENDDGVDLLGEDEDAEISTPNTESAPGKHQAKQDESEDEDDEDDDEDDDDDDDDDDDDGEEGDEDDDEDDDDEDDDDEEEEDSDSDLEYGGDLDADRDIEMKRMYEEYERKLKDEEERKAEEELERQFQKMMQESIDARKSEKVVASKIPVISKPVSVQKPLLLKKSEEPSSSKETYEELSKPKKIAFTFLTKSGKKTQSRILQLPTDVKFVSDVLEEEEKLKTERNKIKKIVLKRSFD

| binding [1] | binding [2] | binding [3] | Substance |
| --- | --- | --- | --- |
| binds | – | – | Cbf5 (from UniProt P33322 1-483) |
| binds | – | – | Gar1 (from UniProt P28007 1-205) |
| no binding | – | – | Tdh3 (from UniProt P00359 1-332) (enzyme) |

Continued, substance first:

| Substance | binding [1] | binding [2] | binding [3] |
| --- | --- | --- | --- |
| Pma1 (from UniProt P05030 1-918) | no binding | – | – |
| eRF1 (yeast Sup45) (from UniProt P12385 1-437) | – | no binding | no binding |
| eRF3 (yeast Sup35) (from UniProt P05453 1-685) | – | no binding | no binding |
